Data published in patent US9493537B2, “Compounds with reduced ring size for use in diagnosing and treating melanoma, including metastatic melanoma and methods related to same” (STC.UNM, priority 2009, dated 2016).
Part of at least one peptide drawing is inferred or uncertain, most often the ends. Positions of bridges follow the written chain, without caps; N, C: chain ends. Non-standard residues stand in square brackets, D forms with d. Residues, ends and D or L forms follow the SMILES beside them. *: point of attachment. DOTA = O=C(O)CN1CCN(CC(=O)O)CCN(CC(=O)*)CCN(CC(=O)O)CC1; Nle = CCCC[C@H](N)C(=O)O

Key:
B16/F1 melanoma = test: Small animal SPECT/CT melanoma imaging; format: in vivo, C57 mice; details: 37.0 MBq, tail vein, 2 h (and 24 h) post-injection
B16/F1 melanoma cells = test: Cellular internalization and efflux in B16/F1 melanoma cells; format: cell-based, murine; details: for cellular uptake activity internalized: 25° C.

Compound | visualization of flank melanoma tumors by SPECT/CT (B16/F1 melanoma) | cellular uptake activity internalized (B16/F1 melanoma cells; 20 min post incubation) [%] | cellular uptake activity internalized (B16/F1 melanoma cells; 120 min post incubation) [%] | internalized activity remained inside the cells (efflux) (B16/F1 melanoma cells; 2 h after incubating cells in culture medium) [%]
CCCC[C@H](NC(=O)CNC(=O)CNC(=O)CN1CCN(CC(=O)O)CCN(CC(=O)O)CCN(CC(=O)O)CC1)C(=O)N[C@H]1CC(=O)NCCCC[C@@H](C(N)=O)NC(=O)[C@H](Cc2c[nH]c3ccccc23)NC(=O)[C@H](CCCNC(=N)N)NC(=O)[C@@H](Cc2ccccc2)NC(=O)[C@H](Cc2c[nH]cn2)NC1=O [^111In-DOTA-GGNle-CycMSHhex, metal not drawn] ({DOTA}-GG[Nle]DH[dF]RWK-NH2; lactam 4-9) | clearly visualized | – | – | –
CCCC[C@H](NC(=O)CN1CCN(CC(=O)O)CCN(CC(=O)O)CCN(CC(=O)O)CC1)C(=O)N[C@H]1CC(=O)NCCCC[C@@H](C(N)=O)NC(=O)[C@H](Cc2c[nH]c3ccccc23)NC(=O)[C@H](CCCNC(=N)N)NC(=O)[C@@H](Cc2ccccc2)NC(=O)[C@H](Cc2c[nH]cn2)NC1=O [^111In-DOTA-Nle-CycMSHhex, metal not drawn] | clearly visualized | 72.9±3.5 | 88.3±0.7 | 89.5±1.9
